Experimental data as given in PubChem BioAssay AID192 (DTP/NCI, 2004).
The list does not hold the whole screen: it is rich in T/C values a quarter to a half above the control, in often repeated tests (any T/C) and in doses without a T/C. Other doses and runs of a compound stand elsewhere. T/C gives the treated animals as a percentage of the vehicle group. Some entries give survivors of the animals treated and no T/C: the source holds a T/C of zero for them, seemingly a mark for toxic or unscored doses. Some doses without a T/C left all or most animals alive at the check, yet need not have been tolerated: survival well below the control is almost never listed, so the zero probably covers shortened survival too. Survivors were counted at the toxicity check, usually on the fifth day, unless a day is given; later deaths do not show. Schedule codes are those of the source, taken here to give the interval after Q, in days (D) or hours (H), and the number of doses after X. For survival time, the PubChem record calls one and a half times the control and up active, and a quarter to a half above the control has no call in these data; cut-offs in other NCI protocols can differ.

System: BDF1 mice, B16 melanoma ip, median survival T/C
Experiment: NCI In Vivo Anticancer Drug Screen. Data for tumor model B16 Melanoma (intraperitoneal) in B6D2F1 (BDF1) mice
Details: T/C endpoint: median survival time, higher T/C = longer survival
In short: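 Mice with transplantable tumors; drug vs vehicle groups; endpoint survival or tumor size; value = T/C.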

Compound: O=C(NP(=O)(N1CC1)N1CC1)c1cc(I)ccc1I
- T/C (dose: 16.0 mg/kg/injection, schedule: Q02DX009 (ip), vehicle: saline with Tween-80): 128 % of control
- T/C (dose: 32.0 mg/kg/injection, schedule: Q02DX009 (ip), vehicle: saline with Tween-80): 148 % of control
- survivor count (dose: 128.0 mg/kg/injection, schedule: Q02DX009 (ip), vehicle: saline with Tween-80): 10 of 10
- survivor count (dose: 128.0 mg/kg/injection, schedule: Q02DX009 (ip), vehicle: saline): 10 of 10
- survivor count (dose: 256.0 mg/kg/injection, schedule: Q02DX009 (ip), vehicle: saline with Tween-80): 5 of 10
- survivor count (dose: 256.0 mg/kg/injection, schedule: Q02DX009 (ip), vehicle: saline): 9 of 10
- survivor count (dose: 512.0 mg/kg/injection, schedule: Q02DX009 (ip), vehicle: saline with Tween-80): 8 of 10
- survivor count (dose: 512.0 mg/kg/injection, schedule: Q02DX009 (ip), vehicle: saline): 9 of 10

Compound: CC(=O)CC(C)=NCC(C)N=C(C)CC(C)=O.c1cc[c]([Sn][c]2ccccc2)cc1 (centres undefined)
- T/C (dose: 1.25 mg/kg/injection, schedule: Q04DX003 (ip), vehicle: saline with Tween-80): 128 % of control
- T/C (dose: 2.5 mg/kg/injection, schedule: Q04DX003 (ip), vehicle: saline with Tween-80): 130 % of control

Compound: c1cc[c]([Pb]([c]2ccccc2)([c]2ccccc2)[n]2ccc3ccccc32)cc1
- survivor count (dose: 4.68 mg/kg/injection, schedule: Q01DX009 (ip), vehicle: saline with Tween-80): 9 of 10

Compound: Nc1ncnc2c1ccn2C1OC(CO)C(O)C1O (centres undefined)
- T/C (dose: 1.25 mg/kg/injection, schedule: Q01DX009 (ip), vehicle: saline): 125 % of control
- survivor count (dose: 2.5 mg/kg/injection, schedule: Q01DX009 (ip), vehicle: saline): 10 of 10
- survivor count (dose: 4.0 mg/kg/injection, schedule: Q01DX009 (ip), vehicle: Klucel (hydroxypropylcellulose) (HPC)): 10 of 10
- survivor count (dose: 8.0 mg/kg/injection, schedule: Q01DX009 (ip), vehicle: Klucel (hydroxypropylcellulose) (HPC)): 10 of 10
- survivor count (dose: 16.0 mg/kg/injection, schedule: Q01DX009 (ip), vehicle: Klucel (hydroxypropylcellulose) (HPC)): 5 of 10

Compound: N#CC1C(=O)c2ccccc2C1=O
- survivor count (dose: 100.0 mg/kg/injection, schedule: Q01DX009 (ip), vehicle: saline with Tween-80): 9 of 10

Compound: O=C(O)CSc1nc(-c2ccccc2)c(-c2ccccc2)n1-c1ccccn1
- survivor count (dose: 200.0 mg/kg/injection, schedule: Q01DX009 (ip), vehicle: water): 6 of 10
- survivor count (dose: 400.0 mg/kg/injection, schedule: Q01DX009 (ip), vehicle: water): 0 of 10

Compound: C#CCOCC(CCl)OC(N)=O (centres undefined)
- survivor count (dose: 400.0 mg/kg/injection, schedule: Q04DX003 (ip), vehicle: saline with Tween-80): 4 of 10

Compound: O=[N+]([O-])c1cc([N+](=O)[O-])c(Br)cc1Cl
- survivor count (dose: 10.0 mg/kg/injection, schedule: Q01DX009 (ip), vehicle: Klucel (hydroxypropylcellulose) (HPC)): 10 of 10
- survivor count (dose: 20.0 mg/kg/injection, schedule: Q01DX009 (ip), vehicle: saline with Tween-80): 9 of 10
- survivor count (dose: 40.0 mg/kg/injection, schedule: Q01DX009 (ip), vehicle: Klucel (hydroxypropylcellulose) (HPC)): 10 of 10

Compound: CC1CCC2(C(=O)O)CCC3(C)C(=CCC4C5(C)CCC(O)C(C)(C)C5CCC43C)C2C1C (centres undefined)
- survivor count (dose: 400.0 mg/kg/injection, schedule: Q01DX009 (ip), vehicle: Klucel (hydroxypropylcellulose) (HPC)): 10 of 10
